According to EP0325044 (dated 1989):
HELM strings list residues between dots; [ac] is acetyl, [am] amide, other brackets name non-standard units.

Assay: general procedure: peptide synthesis; HOBT

PEPTIDE1{[dA].[dV].K.K.Y.[dL]}$PEPTIDE1,PEPTIDE1,1:R1-6:R2$$$V2.0
cyclisation yield (cyclisation step, trifluoroacetate salt (Example 1), acetate salt (Example 2)): 86%
step yield (late stage modification step, acetate salt): 98%
crude yield (whole synthesis, trifluoroacetate salt (Example 1), acetate salt (Example 2)): 92%
